One molecule from publication PMC10765763 can be followed below.

No constants are given. Whether binding was seen depends on the method and setting. Binding seen in cells or lysates may run through a third protein.

The target of test [1] is phosphatidylinositol 3-kinase (PI3K) (mouse (endogenous in hippocampus)). Put plainly: co-IP; mouse hippocampal tissue lysates (3 mice in each group; control and CSDS 10 d), precleared with protein G or A beads, incubated with the appropriate antibody overnight at 4 °C, collected on protein A/G Plus-Agarose, immunoblotting; IgG as negative control.
The target in test [2] is AKT (mouse (endogenous in hippocampus)). Described as above.

B1: nucleotide-binding oligomerization domain, leucine-rich repeat and pyrin domain-containing 1 (NLRP1) (protein, UniProt Q2LKU9 1-1182)
chain: MEESQSKQESSTKVAQHEGQEDVDPTFKTKKLMEVELMKHRVQLERNLKLRTFPGARTKQVKEALYPLLTWSSKSKNLFQNFTKLLLFKKLCQRGSENLVRESWYPCVPEEEAHMIDIQDLFGPNLGTQKKPQLVIIEGAAGIGKSTLARLVKRAWKEGKLYRNDFHHVFFFSCRELAQYEQLSLAELIVQGQEVPTAPIRQILSHPEKLLFILDGIDEPAWVLADQNPELCLHWSQTQPVHTLLGSLLGKSILPGASFLLTTRTTALQKFIPSLEQPCQVEVLGFTLFERKNYFYKYFGKKKGGVTTFTLVKSNSALLTLCEVPWVCWLVCTCLKKQMEQGGELSLTSQTTTALCLKYLSLTIPGQHMRTQLRDLCSLAAEGVCQRRTLFSESDLCKQGLDEHAIASFLKIGVLQKQASSLSYSFAHLCLQEFFAAMSYILDDSEERHADMKNDRIVETLVERYGRQNLFEAPTVRFLFGLLSKEELKKIEKLFSCSLHGKTKLKLLWHILGKSQPHQPPCLGLLHCLYENQDMELLTHVMHDLQGTIVPGPDDLAHTVLQTNVKHLVIQTDMDLMVVTFCIKFCCHVRSLQLNRKVQQGHKFTAPGMVLYRWTPITDASWKIFFSNLKLARNLEELDLSGNPLSYYAVHSLCTTLRKRGCQLKTLWLVECGLTSTYCSLLASVLSARSSLTELDLQLNDLGDGGVKMLCEGLRNPACNLSILWLDQASLSDQVIAELRTLEAKNPKLLISSTWKPHVMVPTMNMDKEEVGDSQALLKQQRQQSGDKHMEPLGTEDEFWGPTGPVTTEVVDRERNLYRVQLPMAGSYHCPSTGLHFVVTRAVTIEIEFCAWSQYLDKTPLQQSHMVVGPLFDIKAEQGAVTAVYLPHFVALQEGIVDSSLFHVAHFQEHGMVLETPARVEQHYAVLENPSFSPMGILLRMIPAVGHFIPITSTTLIYYHLYLEDVTFHLYLVPNDCSIRKAIDDEEMKFQFVRINKPPPVDALYLGSRYIVSSSKLVEIIPKELELCYRSPGESQLFSEIDIGHMDSEIKLQIKDKRHMNLKWEALLKPGDLRPALPKIATAPKDAPSLLHFMDQHREQLVARVTSVDPLLDKLHGLVLSEDSYEVVRSETTNQDKMRKLFSLSRSWSWDCKDQFYQALKETHPHLVMDILEKLGGVSVKS
Turning to B1, the binding result in test [1] and in test [2] was “no binding” throughout.
